Reference: PMC9554868

Tests used:
Experiment in all cases: co-IP
[1] = target: T1, RNF26 deletion mutant 1–385 (UniProt Q9BY78)
T1 sequence: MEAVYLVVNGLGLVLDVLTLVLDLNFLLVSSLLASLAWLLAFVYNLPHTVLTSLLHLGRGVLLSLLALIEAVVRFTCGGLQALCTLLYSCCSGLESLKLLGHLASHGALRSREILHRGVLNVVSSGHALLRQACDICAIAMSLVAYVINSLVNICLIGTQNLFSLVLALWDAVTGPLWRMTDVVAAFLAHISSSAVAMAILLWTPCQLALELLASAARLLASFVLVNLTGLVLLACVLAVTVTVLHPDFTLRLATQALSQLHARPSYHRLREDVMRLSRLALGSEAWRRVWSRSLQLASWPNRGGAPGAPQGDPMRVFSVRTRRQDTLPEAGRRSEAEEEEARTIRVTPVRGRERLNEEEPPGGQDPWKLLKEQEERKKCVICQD

[2] = target: RNF26 deletion mutant 76–433 (UniProt Q9BY78)
[3] = target: T2, RNF26 deletion mutant 241–385 (UniProt Q9BY78)
T2 sequence: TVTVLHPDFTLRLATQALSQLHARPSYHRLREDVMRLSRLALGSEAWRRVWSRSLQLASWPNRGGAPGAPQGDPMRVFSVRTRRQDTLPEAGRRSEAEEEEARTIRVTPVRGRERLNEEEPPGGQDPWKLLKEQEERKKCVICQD

[4] = target: RNF26 deletion mutant 241–433 (UniProt Q9BY78)
[5] = target: T3, RNF26 deletion mutant 76–385 (UniProt Q9BY78)
T3 sequence: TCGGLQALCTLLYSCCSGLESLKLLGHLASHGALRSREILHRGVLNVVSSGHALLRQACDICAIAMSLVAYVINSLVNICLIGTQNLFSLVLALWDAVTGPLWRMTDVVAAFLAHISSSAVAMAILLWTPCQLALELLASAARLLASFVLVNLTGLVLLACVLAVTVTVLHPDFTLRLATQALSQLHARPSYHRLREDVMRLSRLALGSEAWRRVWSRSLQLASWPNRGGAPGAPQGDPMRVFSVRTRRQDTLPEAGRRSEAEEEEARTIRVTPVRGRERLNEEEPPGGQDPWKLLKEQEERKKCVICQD

Question: How did the binding [1] turn out when “EBOV-GP1,2 with a HiBiT tag (from UniProt Q05320)” was run?
Answer: Its binding is “binds”.

Question: What about the binding [2] of the same substance?
Answer: The binding was “binds”.

Question: What about the binding [3] of the same substance?
Answer: Its binding is “no binding”.

Question: And the binding [4]?
Answer: Its binding is “no binding”.

Question: And the binding [5]?
Answer: Its binding is “binds”.

These are yes or no findings as the source states them, for the method shown. In cells and extracts the contact can be indirect. For some assays here: Binding can be weak; no strength is given.
